Measured values published in patent publication US20240215910A1, “A METHOD FOR […] PRO-OR ANTI […] TEST COMPOUNDS” (GW Research Limited, priority 2020, published 2024).

Columns and labels:
[1] = system: tonic hind limb extensor convulsion from a single electroshock; assay: mini-MEST: maximal electroshock seizure threshold test using minimal sample sizes (n=6/group, log-scale current steps); details: 30 min post dose
Source text: (§1) All animals were weighed at the beginning of the study and assigned to treatment groups (n=6/group) based on a mean distribution of body weight across groups.
(§2) The first animal within a treatment group was given a shock at the expected or estimated CC50 current. For subsequent animals, the current was lowered or raised depending on the convulsion outcome from the preceding animal in log scale intervals. Data generated from each treatment group were used to calculate the CC50±SEM values for the treatment group (see Table 5 for details).
as §1
as §2, with “Table 10” for “Table 5”
as §1
as §2, with “Table 15” for “Table 5”

[2] = system: tonic hind limb extensor convulsion from a single electroshock; mouse model of generalised seizure; assay: standard maximal electroshock seizure threshold (MEST) test (n=12/group, 5 mA intervals); details: Example 4, 2.5 mg/kg i.p., 30 min post dose
Experimental: The efficacy of Compound 3 was tested in a mouse model of generalised seizure, the maximal electroshock seizure threshold (MEST) test.
All animals were weighed at the beginning of the study and randomly assigned to treatment groups (n=12/group) based on a mean distribution of body weight across groups.
The first animal within a treatment group was given a shock at the expected or
estimated CC50 current. For subsequent animals, the current was lowered or raised depending on the convulsions outcome from the preceding animal in 5 mA intervals.
Data generated from each treatment group were used to calculate the CC50±SEM values for the treatment group.
The data for each treatment group were recorded as the number of +'s and 0's at each current level employed and this information is then used to calculate the CC50 value (current required for 50% of the animals to show seizure behaviour)±standard error.
Test compound effects were also calculated as percentage change in CC50 from the vehicle control group.
Significant difference between drug-treated animals and controls were assessed according to Litchfield and Wilcoxon (1949).

Structure (SMILES): CN1C(=O)CN=C(c2ccccc2)c2cc(Cl)ccc21 [Diazepam, diazepam, reference compound]
- CC50 ± SEM ([1]; Example 1, 2.5 mg/kg i.p., vehicle CC50 24.5): 75.0 mA
- CC50 ± SEM ([1]; Example 1, 2.5 mg/kg i.p., vehicle CC50 24.5, listed as diazepam): 75.0 mA
- CC50 ± SEM ([1]; Example 2, 2.5 mg/kg i.p., vehicle CC50 22.5): 89.0 +/− 3.4 mA
- CC50 ± SEM ([1]; Example 2, 2.5 mg/kg i.p., vehicle CC50 22.5, listed as diazepam): 89.0 mA
- CC50 ± SEM ([1]; Example 3, 2.5 mg/kg i.p., vehicle CC50 23.5): 46.5 +/− 1.0 mA
- CC50 ± SEM ([1]; Example 3, 2.5 mg/kg i.p., vehicle CC50 23.5, listed as diazepam): 46.5 mA
- CC50 +/− SEM ([2]; N=11, vehicle CC50 24.3): 78.5 ± 1.0 mA
- CC50 +/− SEM ([2]; N=11, vehicle CC50 24.3, listed as diazepam): 78.5 mA
